Experimental data as given in PubChem BioAssay AID1347423 (Functional Genomics Laboratory (NCATS/FGL), 2020).
The whole screen tested about 52,000 sequences, of which about 210 (0.4%) were called active.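 How the source made its calls: active means gene whose silencing raises cell survival under the drug, median off-target-corrected z-score across its silencing RNAs 2 or more; inactive means the rest.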 Some of the results follow.

Assay: Resistance to Poly (ADP-Ribose) Polymerase inhibitor: Gene Identification via Genome-wide siRNA Screen
Conditions: mouse BRCA2 R2336H ES cells, olaparib, CellTiter-Glo viability; stronger effect = higher value
How it was run: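 Genome-wide siRNA screen (3 siRNAs/gene, 20 nM) in mouse ES cells carrying hypomorphic BRCA2 R2336H; olaparib 500 nM added 48 h post-transfection, CellTiter-Glo viability 72 h later. Normalized to plate-median negative control; MAD z-scores, gene median, seed-adjusted.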

Sequence	z-score
CCCUGAACCCUAACAUCACTT against Tcirg1	inactive: 1.05
GGGUAAAAAGCUAGGUUUGTT against Acyp1	inactive: 0.148
AAACAUCACCAACAUCAGUTT against Olfr6	inactive: -1.34
GCCAGGACAAUCUGACUAUTT against Napsa	inactive: 0.781
GGAUCCUGAUCAGCUAUAUTT against Gcn5l2	inactive: -1.1
GCUACCAUAUAUAUCUCACTT against Nox3	inactive: 0.387
GCUUAUCCGCCAUCAAAGATT against AI854635	inactive: 1.95
GCUCUUGGAGCAUUUGUAGTT against Rab32	inactive: 0.522
GGAGAUCGUGCAAUUCAUUTT against Rasl2-9	inactive: -0.53
GCCAUGUGCUGGAAAACUCTT against Pfc	inactive: 0.523
CCCUGUUACUGGAUGCAGUTT against Olfr624	inactive: -2.16
GGACCUUAAAGAAACAUUUTT against 1700069O15Rik	inactive: -1.94
GGAUAGACAGAGAAAAGAUTT against Pcdhgb1	inactive: -1.49
GGAGAUGAGCUGUAUGUGATT against D7Rp2e	inactive: -0.125
CGAUUCAAUGUACCUGUAATT against 1110005A23Rik	inactive: -0.618
CCUCAUCAUAUUCUCCUGATT against Olfr869	inactive: -0.344
GGGCAUCGGAGCUUUCUUATT against 9530009G21Rik	inactive: 0.998
GGGAUUUCUAUCAAGGGACTT against Klf16	inactive: 0.781
GGUUUUGUUAAAGAAGACGTT against 4833439L19Rik	inactive: 0.242
GCGGCAGUUUGAUUUUGGUTT against Wsb2	inactive: -1.44
GCAACCAACUAUGGACCGCTT against Sec24d	inactive: 0.173
GCUAAGGACUGAGGUGCUUTT against 0610009D07Rik	inactive: 2.02
CCGUCCAUUGCACUGGAUATT against Arntl2	inactive: -1.75
GCUGAUACUUGUGUCUUCUTT against Sepp1	inactive: -1.15
GGAGUAUUUACACUUCGACTT against H2-Ob	inactive: -0.0524
GGUAAAAUCACAGAAGAAGTT against Ddx55	inactive: 1.33
GGGCUUGUUGUCCUACUUCTT against Olfr390	inactive: 0.0889
GGACAUAGAUCUACCUGAATT against Ctsb	inactive: -0.683
GCCUUGGCAGUAGUCUACUTT against Olfr429	inactive: -0.992

Some of the entries so far, with bars between the fields:
Sequence | z-score
GCUACCAUAUAUAUCUCACTT against Nox3 | inactive: 0.387
GCUUAUCCGCCAUCAAAGATT against AI854635 | inactive: 1.95
